Results published in US7179464.
No constants are given. Whether binding was seen depends on the method and setting. Some results given as binding are weak or reduced against the parent protein; the word gives no strength. Where a sequence is shown, tags or fusion partners need not be part of it.

T1: fusion protein of the extracellular region of human IL-5R α and a human immunoglobulin constant region (hIL-5R α-Fc) (human) (UniProt Q01344)
T1 sequence: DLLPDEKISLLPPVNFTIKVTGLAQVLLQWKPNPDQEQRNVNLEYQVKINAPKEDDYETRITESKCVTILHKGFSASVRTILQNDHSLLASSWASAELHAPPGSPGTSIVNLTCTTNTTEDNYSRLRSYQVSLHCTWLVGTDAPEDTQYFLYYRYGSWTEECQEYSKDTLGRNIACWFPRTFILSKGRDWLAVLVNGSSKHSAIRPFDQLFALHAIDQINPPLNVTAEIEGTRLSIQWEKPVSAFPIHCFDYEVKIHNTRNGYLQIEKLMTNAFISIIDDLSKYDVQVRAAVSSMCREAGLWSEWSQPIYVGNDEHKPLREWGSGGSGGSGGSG


The binders below were run against T1, fusion protein of the extracellular region of human IL-5R α and a human immunoglobulin constant region (hIL-5R α-Fc) (human) (assay: ELISA method 1, transient COS-7 supernatant, normalized to antibody concentration, relative to KM1399 = 100).

| binding | Binder |
| --- | --- |
| binds | anti-human IL-5R α chain human CDR-grafted antibody KM8397 (antibody, human IgG1, V domains shown) VH: EVQLVQSGAEVKKPGASVKVSCKASGYTFTSYVIHWVRQAPGQGLEWMGYINPYNDGTKYNERFKGRVTITADTSTSTAYMELSSLRSEDTAVYYCAREGIRYYGLLGDYWGQGTLVTVSS VL: DIQMTQSPSSLSASVGDRVTITCGTSEDIINYLNWYQQKPGKAPKLLIYHTSRLQSGVPSRFSGSGSGTDFTLTISSLQPEDFATYYCQQGYTLPYTFGQGTKVEIK |
| binds | anti-human IL-5R α human CDR-grafted antibody HV.2LV.0 (antibody, human IgG1, V domains shown) VH: EVQLVQSGAEVKKPGASVKVSCKASGYTFTSYVIHWVRQAPGQGLAWMGYINPYNDGTKYNERFKGRVTITADRSTSTAYMELSSLRSEDTAVYLCGREGIRYYGLLGDYWGQGTLVTVSS VL: DIQMTQSPSSLSASVGDRVTITCGTSEDIINYLNWYQQKPGKAPKLLIYHTSRLQSGVPSRFSGSGSGTDFTLTISSLQPEDFATYYCQQGYTLPYTFGQGTKVEIK |
| binds | anti-human IL-5R α human CDR-grafted antibody HV.1LV.0 (antibody, human IgG1, V domains shown) VH: EVQLVQSGAEVKKPGASVKVSCKASGYTFTSYVIHWVRQAPGQGLEWMGYINPYNDGTKYNERFKGRVTITADTSTSTAYMELSSLRSEDTAVYLCGREGIRYYGLLGDYWGQGTLVTVSS VL: DIQMTQSPSSLSASVGDRVTITCGTSEDIINYLNWYQQKPGKAPKLLIYHTSRLQSGVPSRFSGSGSGTDFTLTISSLQPEDFATYYCQQGYTLPYTFGQGTKVEIK |
